The supplement of paper PMC6411743
± gives the standard deviation of the averaged measurements. This is a selection; strong and weak results do not stand in their true shares.

The chains behind the UniProt entries cited, without tags or fusion partners. Where a name states a change or a piece, a line headed by the entry shows the natural chain unless it says otherwise.
UniProt Q92922, whole entry: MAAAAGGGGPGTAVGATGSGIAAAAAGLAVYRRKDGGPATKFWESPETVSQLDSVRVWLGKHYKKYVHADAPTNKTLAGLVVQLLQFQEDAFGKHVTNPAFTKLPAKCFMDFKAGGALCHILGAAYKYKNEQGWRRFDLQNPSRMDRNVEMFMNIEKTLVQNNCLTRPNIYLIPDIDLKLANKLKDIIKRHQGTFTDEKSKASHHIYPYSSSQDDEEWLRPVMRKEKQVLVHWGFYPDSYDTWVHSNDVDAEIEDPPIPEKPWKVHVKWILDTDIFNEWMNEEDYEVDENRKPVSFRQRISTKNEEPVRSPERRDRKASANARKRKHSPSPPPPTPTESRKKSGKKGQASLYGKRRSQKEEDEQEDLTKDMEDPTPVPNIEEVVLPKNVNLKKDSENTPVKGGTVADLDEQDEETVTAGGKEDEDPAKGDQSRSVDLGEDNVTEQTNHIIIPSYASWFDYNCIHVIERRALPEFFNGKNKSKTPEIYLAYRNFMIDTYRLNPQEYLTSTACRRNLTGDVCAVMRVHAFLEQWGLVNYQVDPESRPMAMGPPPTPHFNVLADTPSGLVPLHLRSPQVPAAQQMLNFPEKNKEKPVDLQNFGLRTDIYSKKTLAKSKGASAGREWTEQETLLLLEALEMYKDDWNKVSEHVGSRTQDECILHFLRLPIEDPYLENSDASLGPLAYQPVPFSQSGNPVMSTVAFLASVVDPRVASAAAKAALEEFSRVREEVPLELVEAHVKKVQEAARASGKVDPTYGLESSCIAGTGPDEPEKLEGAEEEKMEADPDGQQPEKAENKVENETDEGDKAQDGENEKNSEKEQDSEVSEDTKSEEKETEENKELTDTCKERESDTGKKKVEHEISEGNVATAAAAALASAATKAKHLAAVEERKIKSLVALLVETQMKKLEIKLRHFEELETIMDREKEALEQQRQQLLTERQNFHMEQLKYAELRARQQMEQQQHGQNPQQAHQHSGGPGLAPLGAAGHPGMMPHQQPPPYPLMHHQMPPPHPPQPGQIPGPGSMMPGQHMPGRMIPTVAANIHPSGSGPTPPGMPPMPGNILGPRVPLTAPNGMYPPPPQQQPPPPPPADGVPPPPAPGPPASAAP
UniProt Q8TBM8: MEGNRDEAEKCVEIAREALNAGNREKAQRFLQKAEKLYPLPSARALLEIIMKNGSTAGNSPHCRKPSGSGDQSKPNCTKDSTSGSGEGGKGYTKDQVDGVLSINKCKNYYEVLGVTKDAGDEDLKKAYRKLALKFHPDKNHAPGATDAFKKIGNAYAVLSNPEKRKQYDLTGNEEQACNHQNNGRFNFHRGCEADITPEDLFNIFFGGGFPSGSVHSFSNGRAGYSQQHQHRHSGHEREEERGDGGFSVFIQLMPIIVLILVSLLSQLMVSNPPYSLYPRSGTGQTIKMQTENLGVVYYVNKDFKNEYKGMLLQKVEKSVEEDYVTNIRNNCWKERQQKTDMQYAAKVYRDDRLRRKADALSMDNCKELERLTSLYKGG
UniProt Q92794, whole entry, looked up: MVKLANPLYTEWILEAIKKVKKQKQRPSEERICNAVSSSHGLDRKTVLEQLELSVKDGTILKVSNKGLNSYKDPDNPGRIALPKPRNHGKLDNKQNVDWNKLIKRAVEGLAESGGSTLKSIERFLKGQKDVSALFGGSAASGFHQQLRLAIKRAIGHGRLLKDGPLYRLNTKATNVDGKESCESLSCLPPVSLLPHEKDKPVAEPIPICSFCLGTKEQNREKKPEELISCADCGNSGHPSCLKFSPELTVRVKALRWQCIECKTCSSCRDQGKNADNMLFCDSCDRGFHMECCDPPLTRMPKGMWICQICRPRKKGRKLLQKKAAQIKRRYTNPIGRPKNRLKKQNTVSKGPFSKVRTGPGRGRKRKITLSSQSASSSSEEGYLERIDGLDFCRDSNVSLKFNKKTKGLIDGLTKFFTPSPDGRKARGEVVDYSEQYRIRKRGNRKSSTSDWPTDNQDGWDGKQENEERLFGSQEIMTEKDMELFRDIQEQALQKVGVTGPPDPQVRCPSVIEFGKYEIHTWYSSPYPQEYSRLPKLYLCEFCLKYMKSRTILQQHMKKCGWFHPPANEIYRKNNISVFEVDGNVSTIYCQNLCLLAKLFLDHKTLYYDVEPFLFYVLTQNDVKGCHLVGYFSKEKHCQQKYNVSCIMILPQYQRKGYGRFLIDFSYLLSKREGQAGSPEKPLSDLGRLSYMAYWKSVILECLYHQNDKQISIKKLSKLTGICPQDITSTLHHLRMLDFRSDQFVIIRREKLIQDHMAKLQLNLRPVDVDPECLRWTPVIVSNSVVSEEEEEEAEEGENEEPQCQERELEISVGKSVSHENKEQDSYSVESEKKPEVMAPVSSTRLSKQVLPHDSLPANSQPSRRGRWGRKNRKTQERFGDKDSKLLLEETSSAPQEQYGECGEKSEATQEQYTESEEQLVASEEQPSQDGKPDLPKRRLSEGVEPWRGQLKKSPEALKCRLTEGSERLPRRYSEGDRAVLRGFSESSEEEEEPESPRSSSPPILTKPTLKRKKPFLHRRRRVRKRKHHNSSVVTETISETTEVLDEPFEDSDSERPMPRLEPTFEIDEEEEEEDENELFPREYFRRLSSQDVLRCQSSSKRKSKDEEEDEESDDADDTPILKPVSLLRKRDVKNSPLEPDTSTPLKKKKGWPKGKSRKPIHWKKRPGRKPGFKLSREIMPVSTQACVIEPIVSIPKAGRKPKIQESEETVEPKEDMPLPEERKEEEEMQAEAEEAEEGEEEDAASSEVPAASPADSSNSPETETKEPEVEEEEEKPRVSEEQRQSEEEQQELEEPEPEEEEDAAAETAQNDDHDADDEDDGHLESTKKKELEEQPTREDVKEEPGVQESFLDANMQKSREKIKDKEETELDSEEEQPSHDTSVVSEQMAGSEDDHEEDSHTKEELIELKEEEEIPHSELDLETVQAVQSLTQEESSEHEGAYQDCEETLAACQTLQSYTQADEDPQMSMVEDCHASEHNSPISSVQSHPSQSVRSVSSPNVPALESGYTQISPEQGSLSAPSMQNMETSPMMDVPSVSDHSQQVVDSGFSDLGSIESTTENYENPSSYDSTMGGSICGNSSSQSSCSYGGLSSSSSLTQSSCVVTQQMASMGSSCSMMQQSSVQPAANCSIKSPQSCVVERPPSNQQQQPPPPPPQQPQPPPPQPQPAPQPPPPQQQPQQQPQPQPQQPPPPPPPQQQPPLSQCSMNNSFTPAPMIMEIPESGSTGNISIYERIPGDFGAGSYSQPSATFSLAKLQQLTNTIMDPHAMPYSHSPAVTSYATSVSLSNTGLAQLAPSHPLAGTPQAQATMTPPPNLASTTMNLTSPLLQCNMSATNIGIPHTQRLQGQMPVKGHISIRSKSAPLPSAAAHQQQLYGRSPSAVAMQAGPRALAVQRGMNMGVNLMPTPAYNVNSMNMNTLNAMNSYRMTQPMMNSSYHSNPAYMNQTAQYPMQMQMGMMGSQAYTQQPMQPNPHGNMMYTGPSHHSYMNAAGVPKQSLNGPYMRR
UniProt Q92466: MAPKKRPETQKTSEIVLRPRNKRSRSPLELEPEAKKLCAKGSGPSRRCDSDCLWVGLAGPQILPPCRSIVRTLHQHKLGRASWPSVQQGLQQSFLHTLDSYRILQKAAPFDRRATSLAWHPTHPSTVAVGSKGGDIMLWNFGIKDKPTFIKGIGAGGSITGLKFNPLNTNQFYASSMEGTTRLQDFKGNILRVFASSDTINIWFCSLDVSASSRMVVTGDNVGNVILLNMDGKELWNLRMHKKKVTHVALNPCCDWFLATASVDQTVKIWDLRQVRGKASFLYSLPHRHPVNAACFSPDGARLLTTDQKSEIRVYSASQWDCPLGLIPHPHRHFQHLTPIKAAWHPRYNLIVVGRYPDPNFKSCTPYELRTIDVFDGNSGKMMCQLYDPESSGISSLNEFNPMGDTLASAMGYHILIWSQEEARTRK
UniProt Q8TCT7: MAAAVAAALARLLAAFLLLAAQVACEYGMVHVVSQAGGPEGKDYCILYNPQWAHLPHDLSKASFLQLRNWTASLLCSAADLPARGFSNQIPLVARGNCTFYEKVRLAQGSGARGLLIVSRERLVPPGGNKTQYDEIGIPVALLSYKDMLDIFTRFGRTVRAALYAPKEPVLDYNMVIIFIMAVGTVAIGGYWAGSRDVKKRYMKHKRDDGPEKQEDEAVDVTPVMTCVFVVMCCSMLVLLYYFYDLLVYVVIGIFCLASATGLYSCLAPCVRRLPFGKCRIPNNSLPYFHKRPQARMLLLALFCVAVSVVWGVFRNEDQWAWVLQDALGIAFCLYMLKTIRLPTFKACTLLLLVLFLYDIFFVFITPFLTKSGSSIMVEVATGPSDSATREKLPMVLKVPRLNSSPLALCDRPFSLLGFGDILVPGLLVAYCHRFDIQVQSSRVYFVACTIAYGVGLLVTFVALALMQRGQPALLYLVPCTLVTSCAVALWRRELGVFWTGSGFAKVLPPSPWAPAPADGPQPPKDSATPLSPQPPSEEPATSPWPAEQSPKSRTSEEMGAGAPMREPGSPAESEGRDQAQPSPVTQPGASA
UniProt Q8WVM7: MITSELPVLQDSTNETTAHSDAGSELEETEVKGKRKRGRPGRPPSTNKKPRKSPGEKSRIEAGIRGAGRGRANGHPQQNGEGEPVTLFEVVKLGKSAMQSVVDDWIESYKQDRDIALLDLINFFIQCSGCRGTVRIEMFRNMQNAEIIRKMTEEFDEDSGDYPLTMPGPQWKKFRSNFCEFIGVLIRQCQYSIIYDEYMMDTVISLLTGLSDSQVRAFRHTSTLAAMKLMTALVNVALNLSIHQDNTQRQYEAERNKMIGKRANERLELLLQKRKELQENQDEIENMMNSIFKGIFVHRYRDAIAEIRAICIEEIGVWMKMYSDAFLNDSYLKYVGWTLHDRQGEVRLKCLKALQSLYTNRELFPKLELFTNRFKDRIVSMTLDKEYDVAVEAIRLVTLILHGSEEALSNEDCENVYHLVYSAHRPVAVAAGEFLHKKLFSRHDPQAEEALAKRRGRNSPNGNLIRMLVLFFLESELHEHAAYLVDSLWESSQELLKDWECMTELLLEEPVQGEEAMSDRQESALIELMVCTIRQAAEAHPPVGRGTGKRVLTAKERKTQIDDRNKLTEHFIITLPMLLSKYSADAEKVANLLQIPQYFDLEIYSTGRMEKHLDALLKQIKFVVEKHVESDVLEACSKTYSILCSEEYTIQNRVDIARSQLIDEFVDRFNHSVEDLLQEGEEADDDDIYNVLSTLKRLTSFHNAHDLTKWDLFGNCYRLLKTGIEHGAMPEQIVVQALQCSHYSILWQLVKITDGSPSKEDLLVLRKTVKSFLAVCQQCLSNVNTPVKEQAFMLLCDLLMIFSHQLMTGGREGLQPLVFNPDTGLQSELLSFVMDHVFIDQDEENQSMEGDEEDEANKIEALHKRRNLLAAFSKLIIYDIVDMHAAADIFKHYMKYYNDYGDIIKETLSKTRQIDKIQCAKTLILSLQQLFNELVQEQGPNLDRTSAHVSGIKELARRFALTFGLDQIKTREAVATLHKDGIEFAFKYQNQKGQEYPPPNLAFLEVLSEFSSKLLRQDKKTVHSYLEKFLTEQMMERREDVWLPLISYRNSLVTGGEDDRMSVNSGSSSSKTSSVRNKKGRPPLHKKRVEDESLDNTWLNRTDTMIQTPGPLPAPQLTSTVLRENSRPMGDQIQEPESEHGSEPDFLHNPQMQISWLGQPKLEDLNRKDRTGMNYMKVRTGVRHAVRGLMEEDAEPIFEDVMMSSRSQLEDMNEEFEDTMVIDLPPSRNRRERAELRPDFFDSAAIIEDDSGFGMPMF
UniProt Q8WXE1: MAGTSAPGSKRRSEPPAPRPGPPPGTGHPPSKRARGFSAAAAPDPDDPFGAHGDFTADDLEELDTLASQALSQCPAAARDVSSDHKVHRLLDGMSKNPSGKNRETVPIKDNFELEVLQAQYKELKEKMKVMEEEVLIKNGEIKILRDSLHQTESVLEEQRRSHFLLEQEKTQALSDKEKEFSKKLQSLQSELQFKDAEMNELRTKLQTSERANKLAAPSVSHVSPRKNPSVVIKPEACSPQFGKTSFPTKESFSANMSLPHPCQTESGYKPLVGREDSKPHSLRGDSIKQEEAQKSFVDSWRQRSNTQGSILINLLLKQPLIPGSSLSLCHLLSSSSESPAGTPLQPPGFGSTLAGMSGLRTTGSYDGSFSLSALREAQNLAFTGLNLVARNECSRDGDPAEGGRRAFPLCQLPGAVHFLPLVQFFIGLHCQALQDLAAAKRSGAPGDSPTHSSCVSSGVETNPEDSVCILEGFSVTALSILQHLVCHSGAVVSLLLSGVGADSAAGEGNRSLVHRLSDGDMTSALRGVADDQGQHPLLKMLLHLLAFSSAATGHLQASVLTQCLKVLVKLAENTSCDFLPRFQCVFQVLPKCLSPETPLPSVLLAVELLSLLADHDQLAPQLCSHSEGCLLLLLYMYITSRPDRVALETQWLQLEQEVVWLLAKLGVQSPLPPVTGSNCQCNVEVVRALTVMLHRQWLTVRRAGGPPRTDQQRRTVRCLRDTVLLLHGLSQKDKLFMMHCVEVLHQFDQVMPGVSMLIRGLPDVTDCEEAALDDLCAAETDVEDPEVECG

Compound: Nc1ncnc2c1ncn2[C@@H]1O[C@H](COP(=O)(O)OP(=O)(O)NP(=O)(O)O)[C@@H](O)[C@H]1O [adenylyl imidodiphosphate]
Assay: NP40-soluble protein abundance relative to vehicle (solubility fold change) (ratio); higher = more soluble protein in presence of AMP-PNP
How it was run: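 Across three independent experiments, values are fold changes against the detergent-processed vehicle for each replicate, based on vsn-normalised intensities. The samples were Jurkat crude lysate treated with eight concentrations (0.1 to 10 mM) for 10 min at room temperature and then 3 min at 37 °C. Lysate was solubilised with 0.8% NP40 and benzonase, ultracentrifuged, and the supernatant analysed by TMT-labelled LC-MS/MS.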

Target	NP40-soluble protein abundance (concentration: 1mM)	NP40-soluble protein abundance (concentration: 2mM)	NP40-soluble protein abundance (concentration: 4mM)	NP40-soluble protein abundance (concentration: 6mM)	NP40-soluble protein abundance (concentration: 8mM)	NP40-soluble protein abundance (concentration: 10mM)
UniProt Q92542 and related entries	0.978 ± 0.022	0.99 ± 0.059	1 ± 0.028	0.983 ± 0.02	0.969 ± 0.018	0.992 ± 0.036
NUDCD2 (UniProt Q8WVJ2)	1.013 ± 0.0085	1.03 ± 0.082	0.989 ± 0.041	1 ± 0.029	0.956 ± 0.026	0.95 ± 0.037
KIF18A (UniProt Q8NI77)	1.02 ± 0.06	1.03 ± 0.084	1.03 ± 0.061	1.04 ± 0.013	1.02 ± 0.024	1.05 ± 0.019
UniProt Q8NHM5 and related entries	1.02 ± 0.024	1.034 ± 0.0075	1.04 ± 0.054	1.04 ± 0.04	1.01 ± 0.021	1.04 ± 0.034
SMARCC1 (UniProt Q92922)	1.05 ± 0.063	1.1 ± 0.05	1.04 ± 0.041	1.07 ± 0.086	1.04 ± 0.077	1.1 ± 0.11
UniProt Q8TAP9	1.01 ± 0.032	1.03 ± 0.032	0.999 ± 0.028	0.997 ± 0.037	0.958 ± 0.046	1.01 ± 0.04
CMAS (UniProt Q8NFW8)	1.04 ± 0.013	1.04 ± 0.044	1.13 ± 0.018	1.18 ± 0.051	1.22 ± 0.05	1.24 ± 0.031
RTN4IP1 (UniProt Q8WWV3)	1 ± 0.028	0.947 ± 0.058	0.971 ± 0.027	0.946 ± 0.028	0.947 ± 0.035	0.922 ± 0.012
SRFBP1 (UniProt Q8NEF9)	1.04 ± 0.038	1.07 ± 0.048	1.04 ± 0.021	1.037 ± 0.0045	1.042 ± 0.0097	1.06 ± 0.025
UniProt Q8NDX5 and related entries	1.027 ± 0.0036	1.017 ± 0.0026	1.04 ± 0.045	1.047 ± 0.0044	1.05 ± 0.018	1.1 ± 0.016
DNAJB14 (UniProt Q8TBM8)	0.975 ± 0.025	0.987 ± 0.066	0.971 ± 0.028	0.953 ± 0.039	0.952 ± 0.035	0.947 ± 0.035
UniProt Q8NCA5 and related entries	1.04 ± 0.021	1.05 ± 0.047	1.04 ± 0.017	1.1 ± 0.097	1.13 ± 0.081	1.16 ± 0.088
UniProt Q8WWK9 and related entries	0.999 ± 0.026	1.07 ± 0.11	1.06 ± 0.048	1.08 ± 0.053	1.09 ± 0.074	1.17 ± 0.12
UniProt Q8WXE0 and related entries	1.02 ± 0.05	1.06 ± 0.076	1.07 ± 0.021	0.986 ± 0.035	0.982 ± 0.025	1 ± 0.034
UBA3 (UniProt Q8TBC4)	0.984 ± 0.025	0.949 ± 0.057	1.01 ± 0.033	0.986 ± 0.027	1 ± 0.021	0.979 ± 0.028
MYST3 (UniProt Q92794)	0.996 ± 0.018	1.04 ± 0.021	1.01 ± 0.034	1.01 ± 0.013	1.02 ± 0.018	1.04 ± 0.031
PIEZO1 (UniProt Q92508)	0.992 ± 0.012	0.9827 ± 0.007	1 ± 0.018	0.998 ± 0.018	1.009 ± 0.009	1 ± 0.014
UniProt Q8NFH5 and related entries	1.05 ± 0.026	1.06 ± 0.058	1.08 ± 0.053	1.09 ± 0.035	1.1 ± 0.054	1.14 ± 0.1
LEMD2 (UniProt Q8NC56)	1.083 ± 0.0047	1.15 ± 0.07	1.15 ± 0.05	1.19 ± 0.072	1.23 ± 0.071	1.27 ± 0.052
UniProt Q8WUK0 and related entries	0.953 ± 0.042	0.923 ± 0.019	0.9206 ± 0.0015	0.929 ± 0.023	0.9529 ± 0.0077	0.924 ± 0.018

Rewritten field by field: part of the list above.
SRFBP1 (UniProt Q8NEF9)
  NP40-soluble protein abundance (concentration: 1mM): 1.04 ± 0.038; NP40-soluble protein abundance (concentration: 2mM): 1.07 ± 0.048; NP40-soluble protein abundance (concentration: 4mM): 1.04 ± 0.021; NP40-soluble protein abundance (concentration: 6mM): 1.037 ± 0.0045; NP40-soluble protein abundance (concentration: 8mM): 1.042 ± 0.0097; NP40-soluble protein abundance (concentration: 10mM): 1.06 ± 0.025
UniProt Q8NDX5 and related entries
  NP40-soluble protein abundance (concentration: 1mM): 1.027 ± 0.0036; NP40-soluble protein abundance (concentration: 2mM): 1.017 ± 0.0026; NP40-soluble protein abundance (concentration: 4mM): 1.04 ± 0.045; NP40-soluble protein abundance (concentration: 6mM): 1.047 ± 0.0044; NP40-soluble protein abundance (concentration: 8mM): 1.05 ± 0.018; NP40-soluble protein abundance (concentration: 10mM): 1.1 ± 0.016
DNAJB14 (UniProt Q8TBM8)
  NP40-soluble protein abundance (concentration: 1mM): 0.975 ± 0.025; NP40-soluble protein abundance (concentration: 2mM): 0.987 ± 0.066; NP40-soluble protein abundance (concentration: 4mM): 0.971 ± 0.028; NP40-soluble protein abundance (concentration: 6mM): 0.953 ± 0.039; NP40-soluble protein abundance (concentration: 8mM): 0.952 ± 0.035; NP40-soluble protein abundance (concentration: 10mM): 0.947 ± 0.035

Going on with the list:

Target	NP40-soluble protein abundance (concentration: 1mM)	NP40-soluble protein abundance (concentration: 2mM)	NP40-soluble protein abundance (concentration: 4mM)	NP40-soluble protein abundance (concentration: 6mM)	NP40-soluble protein abundance (concentration: 8mM)	NP40-soluble protein abundance (concentration: 10mM)
UniProt Q8WY54 and related entries	1 ± 0.04	1.01 ± 0.014	1.03 ± 0.042	1.02 ± 0.059	1.01 ± 0.045	1.03 ± 0.056
UniProt Q8TDQ7 and related entries	1 ± 0.027	0.968 ± 0.061	0.984 ± 0.037	0.984 ± 0.03	0.984 ± 0.051	0.973 ± 0.022
UniProt Q8WZA9	1.03 ± 0.023	1.08 ± 0.07	1.04 ± 0.059	0.988 ± 0.028	0.981 ± 0.021	0.989 ± 0.067
LPCAT1 (UniProt Q8NF37)	0.945 ± 0.025	0.902 ± 0.09	0.932 ± 0.043	0.93 ± 0.039	0.896 ± 0.041	0.875 ± 0.034
RAB2B (UniProt Q8WUD1)	1.02 ± 0.076	0.994 ± 0.055	1.04 ± 0.07	0.963 ± 0.056	1.01 ± 0.053	0.986 ± 0.066
NEK7 (UniProt Q8TDX7)	1.01 ± 0.027	0.948 ± 0.051	1 ± 0.012	1.01 ± 0.056	1.06 ± 0.039	1.01 ± 0.02
UniProt Q8TDY2 and related entries	1.05 ± 0.054	1.08 ± 0.024	1.05 ± 0.025	1.01 ± 0.077	0.986 ± 0.021	1.02 ± 0.028
GADD45GIP1 (UniProt Q8TAE8)	0.96 ± 0.026	1.06 ± 0.0042	0.968 ± 0.0089	0.977 ± 0.041	0.953 ± 0.025	0.966 ± 0.024
MOSPD2 (UniProt Q8NHP6)	1.01 ± 0.019	0.959 ± 0.065	0.989 ± 0.06	0.932 ± 0.011	0.91 ± 0.032	0.91 ± 0.054
SORL1 (UniProt Q92673)	1.01 ± 0.012	1.05 ± 0.066	1.02 ± 0.014	1.01 ± 0.019	0.992 ± 0.01	1.03 ± 0.011
NDRG1 (UniProt Q92597)	1.04 ± 0.037	1.04 ± 0.042	0.999 ± 0.058	1 ± 0.02	0.986 ± 0.046	0.989 ± 0.051
UniProt Q92845 and related entries	0.979 ± 0.013	0.992 ± 0.027	0.992 ± 0.015	0.975 ± 0.032	0.968 ± 0.025	0.971 ± 0.03
UniProt Q8WVK7	0.96 ± 0.026	1.03 ± 0.022	0.952 ± 0.017	0.992 ± 0.024	0.9823 ± 0.0087	0.975 ± 0.01
UniProt Q8NDV3-2|Q8NDV3-3	0.953 ± 0.039	0.942 ± 0.011	0.928 ± 0.015	0.977 ± 0.0022	0.945 ± 0.025	0.944 ± 0.033
UniProt Q8TC07-2	0.994 ± 0.019	0.939 ± 0.059	0.976 ± 0.024	0.913 ± 0.021	0.934 ± 0.0098	0.905 ± 0.042
CHD6 (UniProt Q8TD26)	1.03 ± 0.044	1.02 ± 0.034	1.03 ± 0.065	1 ± 0.031	0.973 ± 0.054	0.989 ± 0.031
DDB2 (UniProt Q92466)	0.938 ± 0.04	0.881 ± 0.089	0.934 ± 0.023	0.9661 ± 0.003	0.97 ± 0.028	0.922 ± 0.06
NANP (UniProt Q8TBE9)	1.02 ± 0.016	0.988 ± 0.011	1 ± 0.04	1.01 ± 0.054	1.044 ± 0.0074	1.02 ± 0.033
CHMP7 (UniProt Q8WUX9)	0.993 ± 0.028	1.03 ± 0.053	0.9727 ± 0.0079	1 ± 0.011	0.9358 ± 0.0077	0.985 ± 0.029
RABGGTA (UniProt Q92696)	0.953 ± 0.027	0.874 ± 0.11	0.9467 ± 0.0094	0.929 ± 0.022	0.967 ± 0.031	0.88 ± 0.027

Target	NP40-soluble protein abundance (concentration: 1mM)	NP40-soluble protein abundance (concentration: 2mM)	NP40-soluble protein abundance (concentration: 4mM)	NP40-soluble protein abundance (concentration: 6mM)	NP40-soluble protein abundance (concentration: 8mM)	NP40-soluble protein abundance (concentration: 10mM)
UniProt Q8NHH9 and related entries	1.02 ± 0.043	1 ± 0.046	1.01 ± 0.022	0.96 ± 0.017	0.964 ± 0.011	0.96 ± 0.052
UniProt Q8TCT7 and related entries	0.984 ± 0.025	0.992 ± 0.037	0.988 ± 0.018	1.03 ± 0.046	1.03 ± 0.047	1.04 ± 0.032
PSPC1 (UniProt Q8WXF1)	1.03 ± 0.024	1.05 ± 0.054	1.09 ± 0.015	1.13 ± 0.026	1.14 ± 0.049	1.14 ± 0.053
TMEM131 (UniProt Q92545)	0.967 ± 0.013	0.991 ± 0.023	0.979 ± 0.027	0.992 ± 0.029	0.971 ± 0.012	1 ± 0.032
FAR1 (UniProt Q8WVX9)	1.03 ± 0.027	0.961 ± 0.036	1.005 ± 0.006	0.949 ± 0.023	1.01 ± 0.031	0.97 ± 0.0097
UniProt Q8TEV9 and related entries	1.01 ± 0.023	1.01 ± 0.046	1.01 ± 0.039	0.987 ± 0.013	0.942 ± 0.019	0.967 ± 0.017
SNRNP27 (UniProt Q8WVK2)	1.01 ± 0.011	1.08 ± 0.12	1 ± 0.03	1.1 ± 0.1	1.12 ± 0.091	1.23 ± 0.036
UniProt Q92576 and related entries	1.046 ± 0.0099	1.09 ± 0.048	1.08 ± 0.008	1.08 ± 0.07	1.09 ± 0.04	1.11 ± 0.046
UniProt Q8WVM7 and related entries	0.98 ± 0.022	0.997 ± 0.029	1.02 ± 0.047	0.992 ± 0.034	1.05 ± 0.058	0.968 ± 0.042
ZCRB1 (UniProt Q8TBF4)	1.0199 ± 0.00057	1.05 ± 0.049	1.02 ± 0.018	1.04 ± 0.033	0.99738 ± 0.00012	1.068 ± 0.0043
UniProt Q8TA86 and related entries	0.985 ± 0.026	1.03 ± 0.089	0.976 ± 0.062	0.969 ± 0.052	1.02 ± 0.019	0.986 ± 0.064
UniProt Q8NI08 and related entries	0.968 ± 0.027	1.009 ± 0.0066	0.97 ± 0.03	0.946 ± 0.019	0.922 ± 0.034	0.968 ± 0.026
UniProt Q8NFD5 and related entries	0.983 ± 0.022	1.02 ± 0.04	1.02 ± 0.031	0.989 ± 0.02	0.964 ± 0.018	1.01 ± 0.074
UniProt Q8WVE0	0.9979 ± 0.0064	0.992 ± 0.023	0.998 ± 0.011	1 ± 0.015	1.04 ± 0.017	0.995 ± 0.012
UniProt Q92698 and related entries	0.976 ± 0.048	0.995 ± 0.031	0.983 ± 0.054	0.992 ± 0.053	0.977 ± 0.044	0.988 ± 0.024
GPT2 (UniProt Q8TD30)	0.958 ± 0.02	0.964 ± 0.023	0.945 ± 0.031	0.937 ± 0.046	0.923 ± 0.015	0.964 ± 0.036
UniProt Q8NHV4 and related entries	1.01 ± 0.018	1.024 ± 0.0074	1.02 ± 0.034	1.02 ± 0.029	1.01 ± 0.027	1.05 ± 0.015
UniProt Q8WV93	0.971 ± 0.12	0.943 ± 0.13	0.993 ± 0.18	1.05 ± 0.17	1.08 ± 0.25	1.09 ± 0.16
UniProt Q92616	1.01 ± 0.023	0.968 ± 0.076	0.992 ± 0.046	0.964 ± 0.011	0.948 ± 0.036	0.935 ± 0.049
UniProt Q8WXE1 and related entries	1.01 ± 0.038	1.04 ± 0.018	0.9845 ± 0.0052	0.983 ± 0.035	0.979 ± 0.065	0.997 ± 0.039
